{
  "source": "patent US20260034227A1",
  "about": "“AZLACTONE-BASED POLYMERS AS A SCAFFOLD FOR DIVERSE APPLICATIONS IN DRUG AND GENE DELIVERY” (University of Mississippi, priority 2022, published 2026)",
  "system": "HEK-293 cells",
  "assay": "Subcellular colocalization imaging with LysoTracker Green",
  "assay_type": "cell-based, human",
  "data": [
    {"substance": "N-(2-hydroxyethyl)-N,N-dimethyl-2-oxo-2-(2-oxo-2H-chromen-3-yl)ethanaminium [DBAC]", "values": [
      {"measurement": "reduction in LysoTracker colocalization of DBAC compared to TMR and Lysotracker", "value": 25, "unit": "%"}
    ]}
  ]
}
